{"source": "PubChem BioAssay AID186", "about": "(DTP/NCI, 2004)", "tested_on": "B6D2F1 mice, nontumored toxicity test, survival", "experiment": "NCI In Vivo Anticancer Drug Screen. Data for tumor model Nontumored Animals (Toxicity Test) in B6D2F1 (BDF1) mice", "conditions": "vehicle: saline", "note": "Shown are survivors of the treated group in tumour-free mice. Counts of survivors are from the toxicity check (mostly the fifth day) where no day follows; animals may have died later. Schedules are NCI's codes, read here as Q, the interval in days (D) or hours (H), X, the number of doses.", "data": [{"molecule": "COc1cc2c(c(OC)c1OC)-c1ccc(OC)c(=O)cc1[C@@H](NC(C)=O)CC2", "values": [{"measurement": "survivor count", "setting": "dose: 0.25 mg/kg/injection, schedule: Q01DX005 (oral)", "result": "7 of 7"}, {"measurement": "survivor count", "setting": "dose: 0.25 mg/kg/injection, schedule: Q04DX003 (ip)", "result": "8 of 8"}, {"measurement": "survivor count", "setting": "dose: 0.5 mg/kg/injection, schedule: Q01DX001 (iv)", "result": "8 of 8"}, {"measurement": "survivor count", "setting": "dose: 0.5 mg/kg/injection, schedule: Q01DX005 (oral)", "result": "8 of 8"}, {"measurement": "survivor count", "setting": "dose: 0.5 mg/kg/injection, schedule: Q04DX003 (ip)", "result": "8 of 8"}, {"measurement": "survivor count", "setting": "dose: 0.5 mg/kg/injection, schedule: Q08DX002 (ip)", "result": "8 of 8"}, {"measurement": "survivor count", "setting": "dose: 1.0 mg/kg/injection, schedule: Q01DX001 (ip)", "result": "8 of 8"}, {"measurement": "survivor count", "setting": "dose: 1.0 mg/kg/injection, schedule: Q01DX001 (iv)", "result": "8 of 8"}, {"measurement": "survivor count", "setting": "dose: 1.0 mg/kg/injection, schedule: Q01DX005 (oral)", "result": "8 of 8"}, {"measurement": "survivor count", "setting": "dose: 1.0 mg/kg/injection, schedule: Q04DX003 (ip)", "result": "8 of 8"}, {"measurement": "survivor count", "setting": "dose: 1.0 mg/kg/injection, schedule: Q08DX002 (ip)", "result": "8 of 8"}, {"measurement": "survivor count", "setting": "dose: 2.0 mg/kg/injection, schedule: Q01DX001 (ip)", "result": "8 of 8"}, {"measurement": "survivor count", "setting": "dose: 2.0 mg/kg/injection, schedule: Q01DX001 (iv)", "result": "8 of 8"}, {"measurement": "survivor count", "setting": "dose: 2.0 mg/kg/injection, schedule: Q01DX001 (oral)", "result": "8 of 8"}, {"measurement": "survivor count", "setting": "dose: 2.0 mg/kg/injection, schedule: Q01DX005 (oral)", "result": "8 of 8"}, {"measurement": "survivor count", "setting": "dose: 2.0 mg/kg/injection, schedule: Q04DX003 (ip)", "result": "8 of 8"}, {"measurement": "survivor count", "setting": "dose: 2.0 mg/kg/injection, schedule: Q08DX002 (ip)", "result": "8 of 8"}, {"measurement": "survivor count", "setting": "dose: 4.0 mg/kg/injection, schedule: Q01DX001 (ip)", "result": "5 of 8"}, {"measurement": "survivor count", "setting": "dose: 4.0 mg/kg/injection, schedule: Q01DX001 (iv)", "result": "5 of 8"}, {"measurement": "survivor count", "setting": "dose: 4.0 mg/kg/injection, schedule: Q01DX001 (oral)", "result": "7 of 8"}, {"measurement": "survivor count", "setting": "dose: 4.0 mg/kg/injection, schedule: Q01DX005 (oral)", "result": "3 of 8"}, {"measurement": "survivor count", "setting": "dose: 4.0 mg/kg/injection, schedule: Q04DX003 (ip)", "result": "4 of 8"}, {"measurement": "survivor count", "setting": "dose: 4.0 mg/kg/injection, schedule: Q08DX002 (ip)", "result": "8 of 8"}, {"measurement": "survivor count", "setting": "dose: 8.0 mg/kg/injection, schedule: Q01DX001 (ip)", "result": "1 of 8"}, {"measurement": "survivor count", "setting": "dose: 8.0 mg/kg/injection, schedule: Q01DX001 (iv)", "result": "1 of 8"}, {"measurement": "survivor count", "setting": "dose: 8.0 mg/kg/injection, schedule: Q01DX001 (oral)", "result": "8 of 8"}, {"measurement": "survivor count", "setting": "dose: 8.0 mg/kg/injection, schedule: Q08DX002 (ip)", "result": "3 of 8"}, {"measurement": "survivor count", "setting": "dose: 16.0 mg/kg/injection, schedule: Q01DX001 (oral)", "result": "2 of 8"}, {"measurement": "survivor count", "setting": "dose: 32.0 mg/kg/injection, schedule: Q01DX001 (oral)", "result": "0 of 8"}, {"measurement": "survivor count", "setting": "dose: 31.2 micrograms/kg/injection, schedule: Q03HX024 (ip)", "result": "8 of 8"}, {"measurement": "survivor count", "setting": "dose: 62.5 micrograms/kg/injection, schedule: Q01DX005 (iv)", "result": "8 of 8"}, {"measurement": "survivor count", "setting": "dose: 62.5 micrograms/kg/injection, schedule: Q01DX009 (ip)", "result": "8 of 8"}, {"measurement": "survivor count", "setting": "dose: 62.5 micrograms/kg/injection, schedule: Q03HX016 (ip)", "result": "8 of 8"}, {"measurement": "survivor count", "setting": "dose: 62.5 micrograms/kg/injection, schedule: Q03HX024 (ip)", "result": "8 of 8"}, {"measurement": "survivor count", "setting": "dose: 125.0 micrograms/kg/injection, schedule: Q01DX005 (iv)", "result": "8 of 8"}, {"measurement": "survivor count", "setting": "dose: 125.0 micrograms/kg/injection, schedule: Q01DX009 (ip)", "result": "8 of 8"}, {"measurement": "survivor count", "setting": "dose: 125.0 micrograms/kg/injection, schedule: Q03HX008 (ip)", "result": "8 of 8"}, {"measurement": "survivor count", "setting": "dose: 125.0 micrograms/kg/injection, schedule: Q03HX016 (ip)", "result": "7 of 8"}, {"measurement": "survivor count", "setting": "dose: 125.0 micrograms/kg/injection, schedule: Q03HX024 (ip)", "result": "8 of 8"}, {"measurement": "survivor count", "setting": "dose: 250.0 micrograms/kg/injection, schedule: Q01DX005 (iv)", "result": "8 of 8"}, {"measurement": "survivor count", "setting": "dose: 250.0 micrograms/kg/injection, schedule: Q01DX009 (ip)", "result": "8 of 8"}, {"measurement": "survivor count", "setting": "dose: 250.0 micrograms/kg/injection, schedule: Q03HX008 (ip)", "result": "7 of 8"}, {"measurement": "survivor count", "setting": "dose: 250.0 micrograms/kg/injection, schedule: Q03HX016 (ip)", "result": "7 of 8"}, {"measurement": "survivor count", "setting": "dose: 250.0 micrograms/kg/injection, schedule: Q03HX024 (ip)", "result": "8 of 8"}, {"measurement": "survivor count", "setting": "dose: 500.0 micrograms/kg/injection, schedule: Q01DX005 (iv)", "result": "8 of 8"}, {"measurement": "survivor count", "setting": "dose: 500.0 micrograms/kg/injection, schedule: Q01DX009 (ip)", "result": "8 of 8"}, {"measurement": "survivor count", "setting": "dose: 500.0 micrograms/kg/injection, schedule: Q03HX008 (ip)", "result": "0 of 8"}, {"measurement": "survivor count", "setting": "dose: 500.0 micrograms/kg/injection, schedule: Q03HX016 (ip)", "result": "0 of 8"}, {"measurement": "survivor count", "setting": "dose: 500.0 micrograms/kg/injection, schedule: Q03HX024 (ip)", "result": "0 of 8"}, {"measurement": "survivor count", "setting": "dose: 1000.0 micrograms/kg/injection, schedule: Q01DX005 (iv)", "result": "8 of 8"}, {"measurement": "survivor count", "setting": "dose: 1000.0 micrograms/kg/injection, schedule: Q01DX009 (ip)", "result": "2 of 8"}, {"measurement": "survivor count", "setting": "dose: 1000.0 micrograms/kg/injection, schedule: Q03HX008 (ip)", "result": "0 of 8"}, {"measurement": "survivor count", "setting": "dose: 1000.0 micrograms/kg/injection, schedule: Q03HX016 (ip)", "result": "0 of 8"}]}]}
